{"source": "PubChem BioAssay AID1259405 (NCATS, 2018)", "aim": "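Knock-downs that lift recombinant protein yield in hamster ovary cells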 (primary screen)", "cells": "Chinese hamster CHO-K1 ovary cells with stable secreted eGFP expression", "reagents": "single siRNA against mouse genes, 0.8 pmol siRNA per well (2 µl of 400 nM stock)", "timing": "3 days", "measurement": "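Per-well intracellular GFP measured by laser scanning cytometry, plus viability from ATP luminescence, each relative to plate median of non-targeting control wells, in %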", "reading the numbers": "GFP, % of control: higher = more GFP per well, higher productivity; viability (ATP), % of control: higher = more viable cells (more ATP)", "rule for the call": "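Called active when intracellular GFP, relative to negative control, is at or above 120%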", "note": "Here is a random part of about 50,000 deposited reagents. About 4,000 of all reagents (8%) were called active. 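Mouse siRNA library applied to hamster cells; one well for each siRNA.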 Reagents against one gene are numbered here. Reagent sequences are not shown."}
{"Gene": "Kif1a (kinesin family member 1A)", "siRNA no.": 1, "GFP, % of control": 90.3, "viability (ATP), % of control": 78.9, "Call": "inactive"}
{"Gene": "Kif1a (kinesin family member 1A)", "siRNA no.": 2, "GFP, % of control": 67, "viability (ATP), % of control": 106, "Call": "inactive"}
{"Gene": "Hbb-y (hemoglobin Y, beta-like embryonic chain)", "siRNA no.": 1, "GFP, % of control": 110, "viability (ATP), % of control": 87.3, "Call": "inactive"}
{"Gene": "Hbb-y (hemoglobin Y, beta-like embryonic chain)", "siRNA no.": 2, "GFP, % of control": 61.6, "viability (ATP), % of control": 37.2, "Call": "inactive"}
{"Gene": "Hbb-y (hemoglobin Y, beta-like embryonic chain)", "siRNA no.": 3, "GFP, % of control": 74.3, "viability (ATP), % of control": 83.2, "Call": "inactive"}
{"Gene": "Lmbrd2 (LMBR1 domain containing 2)", "siRNA no.": 1, "GFP, % of control": 150, "viability (ATP), % of control": 100, "Call": "active"}
{"Gene": "Lmbrd2 (LMBR1 domain containing 2)", "siRNA no.": 2, "GFP, % of control": 81.1, "viability (ATP), % of control": 77.4, "Call": "inactive"}
{"Gene": "Lmbrd2 (LMBR1 domain containing 2)", "siRNA no.": 3, "GFP, % of control": 88.4, "viability (ATP), % of control": 85.3, "Call": "inactive"}
{"Gene": "Ubl3 (ubiquitin-like 3)", "siRNA no.": 1, "GFP, % of control": 107, "viability (ATP), % of control": 98.3, "Call": "inactive"}
{"Gene": "Ubl3 (ubiquitin-like 3)", "siRNA no.": 2, "GFP, % of control": 57.5, "viability (ATP), % of control": 71.7, "Call": "inactive"}
{"Gene": "Ubl3 (ubiquitin-like 3)", "siRNA no.": 3, "GFP, % of control": 95.1, "viability (ATP), % of control": 101, "Call": "inactive"}
{"Gene": "Tmem117 (transmembrane protein 117)", "siRNA no.": 1, "GFP, % of control": 62.8, "viability (ATP), % of control": 68, "Call": "inactive"}
{"Gene": "Tmem117 (transmembrane protein 117)", "siRNA no.": 2, "GFP, % of control": 63.2, "viability (ATP), % of control": 83.6, "Call": "inactive"}
{"Gene": "Tmem117 (transmembrane protein 117)", "siRNA no.": 3, "GFP, % of control": 62.6, "viability (ATP), % of control": 42.2, "Call": "inactive"}
{"Gene": "Nfyc (nuclear transcription factor-Y gamma)", "siRNA no.": 1, "GFP, % of control": 34.1, "viability (ATP), % of control": 43.1, "Call": "inactive"}
{"Gene": "Nfyc (nuclear transcription factor-Y gamma)", "siRNA no.": 2, "GFP, % of control": 80.4, "viability (ATP), % of control": 75.2, "Call": "inactive"}
{"Gene": "Nfyc (nuclear transcription factor-Y gamma)", "siRNA no.": 3, "GFP, % of control": 136, "viability (ATP), % of control": 88.6, "Call": "active"}
{"Gene": "Setd5 (SET domain containing 5)", "siRNA no.": 1, "GFP, % of control": 60.4, "viability (ATP), % of control": 82.3, "Call": "inactive"}
{"Gene": "Setd5 (SET domain containing 5)", "siRNA no.": 2, "GFP, % of control": 39.3, "viability (ATP), % of control": 60.1, "Call": "inactive"}
{"Gene": "Setd5 (SET domain containing 5)", "siRNA no.": 3, "GFP, % of control": 49.4, "viability (ATP), % of control": 52.2, "Call": "inactive"}
{"Gene": "Lats2 (large tumor suppressor 2)", "siRNA no.": 1, "GFP, % of control": 76.3, "viability (ATP), % of control": 64.2, "Call": "inactive"}
{"Gene": "Ubn1 (ubinuclein 1)", "siRNA no.": 1, "GFP, % of control": 99.8, "viability (ATP), % of control": 80.1, "Call": "inactive"}
{"Gene": "Ubn1 (ubinuclein 1)", "siRNA no.": 2, "GFP, % of control": 67.2, "viability (ATP), % of control": 77.4, "Call": "inactive"}
{"Gene": "Ubn1 (ubinuclein 1)", "siRNA no.": 3, "GFP, % of control": 180, "viability (ATP), % of control": 87.4, "Call": "active"}
{"Gene": "Gpatch1 (G patch domain containing 1)", "siRNA no.": 1, "GFP, % of control": 59.4, "viability (ATP), % of control": 68.5, "Call": "inactive"}
{"Gene": "Gpatch1 (G patch domain containing 1)", "siRNA no.": 2, "GFP, % of control": 69.2, "viability (ATP), % of control": 47.6, "Call": "inactive"}
{"Gene": "Gpatch1 (G patch domain containing 1)", "siRNA no.": 3, "GFP, % of control": 96.5, "viability (ATP), % of control": 84.4, "Call": "inactive"}
{"Gene": "Mbl1 (mannose-binding lectin (protein A) 1)", "siRNA no.": 1, "GFP, % of control": 130, "viability (ATP), % of control": 126, "Call": "active"}
{"Gene": "Mbl1 (mannose-binding lectin (protein A) 1)", "siRNA no.": 2, "GFP, % of control": 92.1, "viability (ATP), % of control": 48.3, "Call": "inactive"}
{"Gene": "Tmigd1 (transmembrane and immunoglobulin domain containing 1)", "siRNA no.": 1, "GFP, % of control": 71.9, "viability (ATP), % of control": 100, "Call": "inactive"}
{"Gene": "Tmigd1 (transmembrane and immunoglobulin domain containing 1)", "siRNA no.": 2, "GFP, % of control": 72.3, "viability (ATP), % of control": 82.1, "Call": "inactive"}
{"Gene": "Tmigd1 (transmembrane and immunoglobulin domain containing 1)", "siRNA no.": 3, "GFP, % of control": 74.9, "viability (ATP), % of control": 95.9, "Call": "inactive"}
{"Gene": "Auts2 (autism susceptibility candidate 2)", "siRNA no.": 1, "GFP, % of control": 72.9, "viability (ATP), % of control": 92.2, "Call": "inactive"}
{"Gene": "Auts2 (autism susceptibility candidate 2)", "siRNA no.": 2, "GFP, % of control": 81.6, "viability (ATP), % of control": 108, "Call": "inactive"}
{"Gene": "Auts2 (autism susceptibility candidate 2)", "siRNA no.": 3, "GFP, % of control": 43, "viability (ATP), % of control": 25.9, "Call": "inactive"}
{"Gene": "4930449I24Rik (RIKEN cDNA 4930449I24 gene)", "siRNA no.": 1, "GFP, % of control": 49.7, "viability (ATP), % of control": 41, "Call": "inactive"}
{"Gene": "4930449I24Rik (RIKEN cDNA 4930449I24 gene)", "siRNA no.": 2, "GFP, % of control": 52.9, "viability (ATP), % of control": 59.9, "Call": "inactive"}
{"Gene": "4930449I24Rik (RIKEN cDNA 4930449I24 gene)", "siRNA no.": 3, "GFP, % of control": 92.8, "viability (ATP), % of control": 72.3, "Call": "inactive"}
{"Gene": "Ctf1 (cardiotrophin 1)", "siRNA no.": 1, "GFP, % of control": 74.6, "viability (ATP), % of control": 86, "Call": "inactive"}
{"Gene": "Ctf1 (cardiotrophin 1)", "siRNA no.": 2, "GFP, % of control": 73, "viability (ATP), % of control": 52.4, "Call": "inactive"}
{"Gene": "Ctf1 (cardiotrophin 1)", "siRNA no.": 3, "GFP, % of control": 93.3, "viability (ATP), % of control": 116, "Call": "inactive"}
{"Gene": "Ano5 (anoctamin 5)", "siRNA no.": 1, "GFP, % of control": 68.7, "viability (ATP), % of control": 50.1, "Call": "inactive"}
{"Gene": "Ano5 (anoctamin 5)", "siRNA no.": 2, "GFP, % of control": 76.2, "viability (ATP), % of control": 64.1, "Call": "inactive"}
{"Gene": "Ano5 (anoctamin 5)", "siRNA no.": 3, "GFP, % of control": 78.9, "viability (ATP), % of control": 84.9, "Call": "inactive"}
{"Gene": "Zfp105 (zinc finger protein 105)", "siRNA no.": 1, "GFP, % of control": 62.7, "viability (ATP), % of control": 39.4, "Call": "inactive"}
{"Gene": "Zfp105 (zinc finger protein 105)", "siRNA no.": 2, "GFP, % of control": 67.2, "viability (ATP), % of control": 93, "Call": "inactive"}
{"Gene": "Zfp105 (zinc finger protein 105)", "siRNA no.": 3, "GFP, % of control": 67.5, "viability (ATP), % of control": 60.8, "Call": "inactive"}
{"Gene": "Cd209a (CD209a antigen)", "siRNA no.": 1, "GFP, % of control": 50.2, "viability (ATP), % of control": 59.5, "Call": "inactive"}
{"Gene": "Cd209a (CD209a antigen)", "siRNA no.": 2, "GFP, % of control": 68.7, "viability (ATP), % of control": 89.7, "Call": "inactive"}
{"Gene": "Cd209a (CD209a antigen)", "siRNA no.": 3, "GFP, % of control": 44.1, "viability (ATP), % of control": 42.3, "Call": "inactive"}
{"Gene": "Tas2r102 (taste receptor, type 2, member 102)", "siRNA no.": 1, "GFP, % of control": 123, "viability (ATP), % of control": 66.5, "Call": "active"}
{"Gene": "Tas2r102 (taste receptor, type 2, member 102)", "siRNA no.": 2, "GFP, % of control": 84.3, "viability (ATP), % of control": 93.9, "Call": "inactive"}
{"Gene": "Tas2r102 (taste receptor, type 2, member 102)", "siRNA no.": 3, "GFP, % of control": 147, "viability (ATP), % of control": 127, "Call": "active"}

Hits, of those listed so far:
{"Gene": "Lmbrd2 (LMBR1 domain containing 2)", "siRNA no.": 1, "GFP, % of control": 150, "viability (ATP), % of control": 100, "Call": "active"}
{"Gene": "Nfyc (nuclear transcription factor-Y gamma)", "siRNA no.": 3, "GFP, % of control": 136, "viability (ATP), % of control": 88.6, "Call": "active"}
{"Gene": "Ubn1 (ubinuclein 1)", "siRNA no.": 3, "GFP, % of control": 180, "viability (ATP), % of control": 87.4, "Call": "active"}
{"Gene": "Mbl1 (mannose-binding lectin (protein A) 1)", "siRNA no.": 1, "GFP, % of control": 130, "viability (ATP), % of control": 126, "Call": "active"}
{"Gene": "Tas2r102 (taste receptor, type 2, member 102)", "siRNA no.": 1, "GFP, % of control": 123, "viability (ATP), % of control": 66.5, "Call": "active"}
{"Gene": "Tas2r102 (taste receptor, type 2, member 102)", "siRNA no.": 3, "GFP, % of control": 147, "viability (ATP), % of control": 127, "Call": "active"}
